Some of the results follow. No stated cut-off is given here; in the data, active = 2 or more and inactive = the rest. Single values are uncertain here, since repeats match poorly.
tested on: Lgr5 (MarsCy1-Lgr5-EGFP, U2OS); assay: cell-surface Lgr5 expression (SCi1 fluorescence, background-subtracted) relative to WT DMSO (fold of DMSO control); higher = more Lgr5 at the plasma membrane; conditions: U2OS MarsCy1-Lgr5-EGFP stable; treatment time: overnight; library: ActiProbe-5K (TimTec); 25 µM

cell-surface Lgr5 expression, inactive:
Cc1ccc(S(=O)(=O)OCC2COC(C)(C)O2)cc1 (stereo not drawn) 0.981
CC1(CO)COC(COc2ccccc2)=N1 (stereo not drawn) 1.14
Brc1ccc2c(c1)C1Oc3ccc(Br)cc3C(O2)O1 0.971
O=C1COc2c(Br)cc(Br)cc2O1 1.18
Oc1ccc2cc(Br)ccc2c1Br 1.01
Brc1ccc(/C=N/n2cnnc2)cc1 1.3
N#Cc1c(/N=C\c2ccc(Br)s2)sc2c1CCCC2 1.51
CCc1c(C)c(C#N)c2n(c1=O)CC(C)O2 (stereo not drawn) 0.932
Clc1cccc(C2CC(c3ccc4ccccc4c3)=NN2c2ccccc2)c1 (stereo not drawn) 1.04
O=c1c(/C=N\Cc2ccco2)c(NCc2ccco2)nc2ccccn12 1.05
Cc1nc2c(ccc3nc(C)[nH]c32)[nH]1 1.02
CCCC(C)C(=O)Nc1cc(C)on1 (stereo not drawn) 1.01
O=c1nc(NC2CCCCCCCCCCC2)cn[nH]1 1.16
Cn1ccnc1SC/C=C/CSc1nccn1C 1.29
S=C(NCC1COc2ccccc2O1)NC1CCCCC1 (stereo not drawn) 0.931
CNc1nc2[nH]c(=O)cc(O)c2s1 1.07
CC(=O)NC(C)(C)c1cn(-c2nonc2N)nn1.CC(=O)NC(C)(C)c1cnnn1-c1nonc1N 0.825
CC(=O)N/C=C1\C(=O)N(C)C(=O)C(C#N)=C1C 1.54
c1coc(CNc2nc3nonc3nc2NCc2ccco2)c1 1.18
O=c1[nH]nc(CSCc2ccc(Cl)cc2)[nH]1 1.41
N#CCCSc1sc2c(O)cc(=O)[nH]c2c1C#N 1.13
OC1=C2C(=Nc3ccccc3SC2c2ccccc2)c2ccccc21 (stereo not drawn) 1.23
C=CCC1(/C=C/C)CCCCN1.Cl (stereo not drawn) 1.05
Sc1nnc(COc2ccccc2)o1 1.29
Oc1cc(O)c2sc3nc(-c4ccncc4)ccc3c2n1 1.15
O=[N+]([O-])c1ccc(F)cc1C(F)(F)F 1.36
[Br-].[NH2+]=c1sc2ccccc2n1C(=O)OCc1ccccc1 0.953
CC12CCC(=O)C=C1CCC1(C)C2(C)CCC2(C)C(C(=O)CO)CCC21C (stereo not drawn) 1.86
COc1ccc(C2Oc3c(ccc4cc(OC)c(OC)cc34)-c3cc(OC)c(OC)cc32)cc1 (stereo not drawn) 1.98
C1=CC2c3cccc4c3N(CC2C1)CC1CC=CC41 (stereo not drawn) 1.22
Cc1[nH]nc2c1C1(CC(C)N(C)CC1C)C(C#N)=C(N)O2 (stereo not drawn) 1.08
CN1C(=O)C2C=CC=CC2N=C1SCC(N)=O (stereo not drawn) 1.14
O=c1nc(O)c2sc3nc(C45CC6CC(CC(C6)C4)C5)ccc3c2[nH]1 1.64
Cc1[nH]c(=O)c(C#N)c2c1COC(C)(C)C2 1.29
COc1cc(/C=N\c2cc(OC)c(OC)c(OC)c2)cc(OC)c1OC 1.07
CC(=O)c1nnn(C2CCCCC2)c1NC1CCCCC1 1.59
CN1CCC2(CC1)C1CN(C)CC=C1C(C#N)=C(N)C2(C#N)C#N (stereo not drawn) 1.35
CC(=O)C12CC3CC(CC(C3)C1)C2 1.31
CCCCCCCCCn1cnc2c1c(=O)n(C)c(=O)n2C 1.4
O=c1ccnc(NC2CCCCC2)[nH]1 1.32
CN(C)S(=O)(=O)Nc1ccc2c(c1)Cc1ccccc1-2 0.998
C1C\C(=N/Nc2nc(c(CCCC)c(n2)C)O)CC1 1.07
O=c1[nH]c(=O)c2sc3nc(C4CC4)cc(C(F)(F)F)c3c2[nH]1 1.15
NC(=O)c1nc(NC2CC2)sc1N 1.05
CN1CCc2c(-c3cccs3)nc(S)c(C#N)c2C1 1.1
N#C/C(=C/c1cc(CSc2nnc(N)s2)cs1)C(N)=S 1.04
O=C(O)Cn1cc([N+](=O)[O-])nc1Cl 0.93
O=C1c2ccccc2-c2nc3nonc3nc21 0.617
CC(C)Cc1nc2[nH]nc(N)c2c2c1CCCC2 1.23
c1ccc(N2CCN(c3ccccc3)C2c2ccco2)cc1 0.983
FC(F)(F)c1ccc2nnc(-c3ccc(Cl)cc3Cl)n2c1 0.823
NS(=O)(=O)c1cc2c(cc1Cl)NCNS2(=O)=O 1.18
Brc1cnn(-c2nc(N3CCOCC3)nc(N3CCOCC3)n2)c1 0.888

3 records drawn at random from the list so far:
cell-surface Lgr5 expression, inactive:
O=c1c(/C=N\Cc2ccco2)c(NCc2ccco2)nc2ccccn12 1.05
Cn1ccnc1SC/C=C/CSc1nccn1C 1.29
CC(=O)c1nnn(C2CCCCC2)c1NC1CCCCC1 1.59

Source: the supplement of paper PMC4683952
